# Data source: PubChem BioAssay AID1259279 (Sanger Institute, 2017)
# Purpose: 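Kinases that colorectal cancer cells need to survive, alone or with drugs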 (primary screen)
# Cells: LS180 human colorectal cancer cells
# Reagents: siRNA pool against human genes
# Treatment: anchor drug BYL719 at 1 µM, cetuximab at 5 µg/ml or trametinib at 10 nM, or DMSO vehicle only
# Detection: 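Cell viability versus a non-targeting pool, as a fraction and as a robust z-score from replicate means, plus a synergy score for each of three drugs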
# Direction: viability z-score, no drug: higher = more viable cells after knock-down; viability, no drug: higher = more viable cells; synergy score with BYL719 and synergy score with cetuximab and synergy score with trametinib: higher = stronger synthetic lethal synergy with drug
# Active means: 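Essential (active) calls need a no-drug viability z-score lower than -3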
# Meaning of the calls: active = essential (knock-down alone cuts viability); inactive = no change without drug
# Here is one part, drawn at random, of 794 reagents. In the full data, 11 (1.4%) were called active. 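Calls reflect knock-down alone in the vehicle arm, not drug synergy.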 No viability above 1 is reported: the scale is capped. Not given: the amount of reagent, the time to read-out.
target gene,"viability z-score, no drug","viability, no drug (fraction)",synergy score with BYL719,synergy score with cetuximab,synergy score with trametinib,call
BCKDK,-0.0475,0.901,-0.0146,-0.108,-0.0408,inactive
SRMS,-0.441,0.858,0.105,-0.088,-0.00934,inactive
CLK4,0.587,0.97,0.0102,-0.153,-0.0937,inactive
MGA,-1.6,0.731,-0.00562,0.06,0.0873,inactive
MAP3K2,0.86,1,-0.0681,-0.111,-0.0344,inactive
CIT,-1.49,0.744,0.0129,-0.0653,0.0573,inactive
PAK2,0.86,1,-0.0459,0.0174,-0.0993,inactive
ACVR1C,0.86,1,-0.0665,-0.0261,-0.00975,inactive
GRK2,0.298,0.939,0.195,0.0259,0.139,inactive
SGK3,0.146,0.922,-0.128,-0.0585,-0.0541,inactive
LRRK2,0.86,1,-0.0961,-0.106,0.159,inactive
NPR2,0.86,1,-0.0327,-0.113,-0.0556,inactive
PLK4,-0.85,0.813,-0.0311,-0.00642,0.173,inactive
STRADB,0.86,1,-0.174,0.0212,0.0531,inactive
CTNNB1,-3.77,0.495,-0.191,-0.3,-0.317,active
PRKCH,-0.467,0.855,0.0637,0.0122,0.00391,inactive
BMP2K,0.86,1,-0.124,0.142,0.0697,inactive
PAK6,0.86,1,0.0692,0.00834,-0.039,inactive
MSR1,0.716,0.984,0.068,0.0849,0.145,inactive
LRRK1,-0.755,0.824,-0.0597,-0.129,-0.117,inactive
CRIM1,0.738,0.987,-0.0266,0.162,0.236,inactive
MAPKAPK5,-1.69,0.722,-0.0681,-0.218,-0.139,inactive
ALPK3,-0.686,0.831,-0.126,-0.145,-0.151,inactive
CSNK2B,-0.77,0.822,-0.0603,-0.142,0.00596,inactive
PACSIN1,-0.0668,0.899,-0.0291,-0.0456,-0.00321,inactive

Sorted by “synergy score with trametinib” (ascending): some entries from above
target gene,"viability z-score, no drug","viability, no drug (fraction)",synergy score with BYL719,synergy score with cetuximab,synergy score with trametinib,call
LRRK1,-0.755,0.824,-0.0597,-0.129,-0.117,inactive
PAK6,0.86,1,0.0692,0.00834,-0.039,inactive
BMP2K,0.86,1,-0.124,0.142,0.0697,inactive
MSR1,0.716,0.984,0.068,0.0849,0.145,inactive
CRIM1,0.738,0.987,-0.0266,0.162,0.236,inactive

Further reagents follow:
target gene,"viability z-score, no drug","viability, no drug (fraction)",synergy score with BYL719,synergy score with cetuximab,synergy score with trametinib,call
PTK7,-1.75,0.715,0.072,0.129,0.028,inactive
DCLK1,-0.581,0.843,-0.0593,-0.0868,-0.128,inactive
FN3KRP,-1.97,0.691,0.0265,0.118,0.11,inactive
ZAP70,-0.411,0.861,-0.0849,-0.0542,0.118,inactive
RET,0.452,0.956,0.0228,-0.0649,-0.0507,inactive
CSK,0.155,0.923,-0.13,-0.23,0.00173,inactive
SPHK2,-0.29,0.875,-0.0775,-0.0431,0.0274,inactive
WNK1,0.86,1,0.108,-0.0603,-0.00837,inactive
MAP3K7,0.86,1,-0.031,0.0327,0.0583,inactive
CDK11A,-1.41,0.752,-0.172,-0.101,-0.0672,inactive
LYN,0.0298,0.909,-0.116,0.0861,0.0354,inactive
ROCK1,0.86,1,-0.131,-0.145,-0.0292,inactive
PRKACB,0.86,1,0.00853,-0.0735,-0.132,inactive
SRP72,-1.75,0.715,-0.225,-0.103,-0.147,inactive
MAP4K3,-0.596,0.841,-0.125,0.0214,0.0422,inactive
CASK,-0.854,0.813,-0.0562,-0.202,0.000449,inactive
FCSK,0.438,0.954,-0.0127,0.0225,0.0475,inactive
CDK3,0.86,1,-0.169,0.0672,-0.0286,inactive
TSSK2,-2.24,0.662,-0.113,-0.107,-0.0612,inactive
EPHA4,-0.0113,0.905,-0.0322,-0.104,-0.0924,inactive
ROS1,0.53,0.964,-0.00296,-0.196,0.00707,inactive
NEK5,0.86,1,-0.157,-0.077,-0.212,inactive
CAMKK2,0.00751,0.907,-0.102,0.0126,0.0561,inactive
PTK2,-0.845,0.814,-0.0827,0.0424,-0.0549,inactive
NLK,-0.166,0.888,-0.0596,-0.13,-0.141,inactive
